Consider four substances from PMC7026596.

Protein sequences, listed by entry. Tags and fused reporters are not part of them. Lines headed by an entry give the natural chain unless they say otherwise; changes in a name come on top. Chains listed by the source or under a name are the forms on record and can include a tag or linker. Residues count along the entry.
UniProt P83369: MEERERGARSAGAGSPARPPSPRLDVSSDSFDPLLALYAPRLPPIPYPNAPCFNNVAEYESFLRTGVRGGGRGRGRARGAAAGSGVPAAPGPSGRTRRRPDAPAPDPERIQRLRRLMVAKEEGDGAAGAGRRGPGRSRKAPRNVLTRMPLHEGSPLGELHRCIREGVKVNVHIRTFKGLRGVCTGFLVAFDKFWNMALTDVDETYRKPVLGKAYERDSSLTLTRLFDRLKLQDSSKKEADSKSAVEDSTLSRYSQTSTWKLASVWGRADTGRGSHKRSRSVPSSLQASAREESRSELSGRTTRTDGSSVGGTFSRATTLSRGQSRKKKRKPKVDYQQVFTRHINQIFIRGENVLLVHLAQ
His-Lsm11(Δ211–332) (P83369, form named): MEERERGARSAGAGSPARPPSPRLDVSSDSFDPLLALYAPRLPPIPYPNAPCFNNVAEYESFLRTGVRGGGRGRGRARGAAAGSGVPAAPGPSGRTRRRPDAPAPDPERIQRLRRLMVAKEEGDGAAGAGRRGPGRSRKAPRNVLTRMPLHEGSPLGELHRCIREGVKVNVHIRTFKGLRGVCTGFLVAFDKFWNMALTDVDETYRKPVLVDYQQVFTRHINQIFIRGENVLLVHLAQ
GST-tagged Δ61 FLASH (amino acids 62–139) (Q9UKL3, residues 62-139): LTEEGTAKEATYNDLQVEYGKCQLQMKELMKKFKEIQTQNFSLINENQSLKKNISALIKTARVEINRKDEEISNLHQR
FLASH (51–137) C54S/C83A double mutant (Q9UKL3, form named): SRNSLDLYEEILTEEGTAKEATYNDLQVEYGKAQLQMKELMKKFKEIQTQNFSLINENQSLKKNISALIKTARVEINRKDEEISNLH
UniProt Q969L4: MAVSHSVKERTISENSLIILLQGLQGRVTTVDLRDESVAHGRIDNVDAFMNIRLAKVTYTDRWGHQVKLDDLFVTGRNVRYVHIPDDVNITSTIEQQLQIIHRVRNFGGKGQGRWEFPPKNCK

These are yes or no findings as the source states them, for the method shown. Some entries that bind do so weakly or less than the wild type.

The target in assay [1] is His-Lsm11(Δ211–332) (UniProt P83369). Put plainly: SEC; equimolar sub-complexes, U7 snRNA (nucleotides 20–63) and two molar equivalents of FLASH mixed in 20 mM HEPES pH 7.5, 250 mM NaCl, 5 mM MgCl2, 5 mM DTT; MBP removed with TEV protease; Superdex 200 in 20 mM HEPES pH 7.5, 400 mM NaCl, 1.5 mM MgCl2, 5 mM DTT; peak analysed by SDS-PAGE and electron microscopy; both purified.

The target is the same in assay [2]. Kind of assay: SEC; core assembled at 20 μM of each component in 600 mM KCl, 15 mM HEPES pH 7.9, 15% glycerol, 20 mM EDTA, 32°C; pre-bound to FLASH (40 μM); Superose 6 Increase 3.2/300 in 75 mM KCl, 15 mM HEPES–KOH pH 7.9, 10% glycerol, 20 mM EDTA; fractions read by silver staining or Western blotting; both purified. In general terms: SEC sorts molecules by how far they enter the pores of the column.

The target is the same in assay [3]. Put plainly: pull-down; recombinant core U7 snRNP pre-bound to FLASH, bound with SLBP to biotinylated mH2a/2m-3′B histone pre-mRNA and held on streptavidin beads in processing buffer (75 mM KCl, 15 mM HEPES–KOH pH 7.9, 15% glycerol, 20 mM EDTA), 4°C; recombinant proteins read by silver staining or Western blotting; both purified. Background: In western blotting, separated proteins are transferred to a membrane and probed.

Assay [4] shares this target. Kind of assay: co-purification of co-expressed proteins (nickel affinity, heparin column); His-Lsm11 and MBP-Lsm10 co-expressed in Hi5 insect cells from one baculovirus vector; lysate (20 mM Tris pH 7.5, 500 mM NaCl) on nickel beads, then HiTrap Heparin with a salt gradient.
Another assay concerns the target His-Lsm11, full length (UniProt P83369). Described as above.
In another assay the target is SmG-His (UniProt P62308). Kind of assay: co-purification of co-expressed proteins (nickel affinity, heparin column); proteins co-expressed in E. coli BL21 Star (DE3); only one carries a 6xHis tag; lysate (20 mM Tris pH 7.5, 500 mM NaCl) on nickel beads, then heparin with a salt gradient.

As for “FLASH (51–137) C54S/C83A double mutant (from UniProt Q9UKL3 51-137) (domain or fragment)”, the binding entry with His-Lsm11(Δ211–332) [1] is given as “binds”.

For “GST-tagged Δ61 FLASH (amino acids 62–139) (from UniProt Q9UKL3 62-139) (domain or fragment)”, the binding entry with His-Lsm11(Δ211–332) [2] and with His-Lsm11(Δ211–332) [3] was “binds” throughout. As to MBP-Lsm10 (from UniProt Q969L4 1-123), the binding entry with His-Lsm11(Δ211–332) [4] is “binds”; with His-Lsm11, full length it was “binds”. With “SmE, untagged (from UniProt P62304 1-92)”, the binding entry with SmG-His is given as “binds”.
